The values that follow come from patent US20140186823.

One series relates to Helicase (unspecified). The series can be described thus: binding assay. The note with it: 5mC; idSp spacer; 5' Cholesteryl-TEG on SEQ 32 [strand 1: 9, 27 (5mC); idSp spacer and 5' cholesteryl-TEG (SEQ 32) left out]; purified recombinant protein; letters built from the parent sequence and the stated change.
Series [1] has as its target MS-(B1-L88N)8 (Mycobacterium smegmatis) (UniProt A0QR29). The series can be described thus: binding assay. The note with it: 5mC; idSp spacer; 5' Cholesteryl-TEG on SEQ 32 [strand 1: 9, 27 (5mC); idSp spacer and 5' cholesteryl-TEG (SEQ 32) left out]; 5-methylcytosine and cytosine give different current levels; purified recombinant protein; letters built from the parent sequence and the stated change.

The exact form of at least one protein or probe is not confirmed.

For “TTTTTTTTCTTTTTTTTCTTTTTTTTCGTTTTTTTTCGTTTTTTTTGTATCTCCATCGCTGCCCCCTTTTTCCCCCTTTTT / GGCAGCGATGGAGATACTTGAGGCGAGCGGTCAA / TTGACCGCTCGCCTC [5-methylcytosine substrate]”, the binding result (in the series on Helicase (unspecified); in series [1]) was “binds” throughout.
